# Test results: publication PMC4118958
# Sequences of proteins named here, by UniProt entry; tags and fusion partners are left off. A change or cut given only in a name is not applied to a line headed by its entry.
# UniProt P38398: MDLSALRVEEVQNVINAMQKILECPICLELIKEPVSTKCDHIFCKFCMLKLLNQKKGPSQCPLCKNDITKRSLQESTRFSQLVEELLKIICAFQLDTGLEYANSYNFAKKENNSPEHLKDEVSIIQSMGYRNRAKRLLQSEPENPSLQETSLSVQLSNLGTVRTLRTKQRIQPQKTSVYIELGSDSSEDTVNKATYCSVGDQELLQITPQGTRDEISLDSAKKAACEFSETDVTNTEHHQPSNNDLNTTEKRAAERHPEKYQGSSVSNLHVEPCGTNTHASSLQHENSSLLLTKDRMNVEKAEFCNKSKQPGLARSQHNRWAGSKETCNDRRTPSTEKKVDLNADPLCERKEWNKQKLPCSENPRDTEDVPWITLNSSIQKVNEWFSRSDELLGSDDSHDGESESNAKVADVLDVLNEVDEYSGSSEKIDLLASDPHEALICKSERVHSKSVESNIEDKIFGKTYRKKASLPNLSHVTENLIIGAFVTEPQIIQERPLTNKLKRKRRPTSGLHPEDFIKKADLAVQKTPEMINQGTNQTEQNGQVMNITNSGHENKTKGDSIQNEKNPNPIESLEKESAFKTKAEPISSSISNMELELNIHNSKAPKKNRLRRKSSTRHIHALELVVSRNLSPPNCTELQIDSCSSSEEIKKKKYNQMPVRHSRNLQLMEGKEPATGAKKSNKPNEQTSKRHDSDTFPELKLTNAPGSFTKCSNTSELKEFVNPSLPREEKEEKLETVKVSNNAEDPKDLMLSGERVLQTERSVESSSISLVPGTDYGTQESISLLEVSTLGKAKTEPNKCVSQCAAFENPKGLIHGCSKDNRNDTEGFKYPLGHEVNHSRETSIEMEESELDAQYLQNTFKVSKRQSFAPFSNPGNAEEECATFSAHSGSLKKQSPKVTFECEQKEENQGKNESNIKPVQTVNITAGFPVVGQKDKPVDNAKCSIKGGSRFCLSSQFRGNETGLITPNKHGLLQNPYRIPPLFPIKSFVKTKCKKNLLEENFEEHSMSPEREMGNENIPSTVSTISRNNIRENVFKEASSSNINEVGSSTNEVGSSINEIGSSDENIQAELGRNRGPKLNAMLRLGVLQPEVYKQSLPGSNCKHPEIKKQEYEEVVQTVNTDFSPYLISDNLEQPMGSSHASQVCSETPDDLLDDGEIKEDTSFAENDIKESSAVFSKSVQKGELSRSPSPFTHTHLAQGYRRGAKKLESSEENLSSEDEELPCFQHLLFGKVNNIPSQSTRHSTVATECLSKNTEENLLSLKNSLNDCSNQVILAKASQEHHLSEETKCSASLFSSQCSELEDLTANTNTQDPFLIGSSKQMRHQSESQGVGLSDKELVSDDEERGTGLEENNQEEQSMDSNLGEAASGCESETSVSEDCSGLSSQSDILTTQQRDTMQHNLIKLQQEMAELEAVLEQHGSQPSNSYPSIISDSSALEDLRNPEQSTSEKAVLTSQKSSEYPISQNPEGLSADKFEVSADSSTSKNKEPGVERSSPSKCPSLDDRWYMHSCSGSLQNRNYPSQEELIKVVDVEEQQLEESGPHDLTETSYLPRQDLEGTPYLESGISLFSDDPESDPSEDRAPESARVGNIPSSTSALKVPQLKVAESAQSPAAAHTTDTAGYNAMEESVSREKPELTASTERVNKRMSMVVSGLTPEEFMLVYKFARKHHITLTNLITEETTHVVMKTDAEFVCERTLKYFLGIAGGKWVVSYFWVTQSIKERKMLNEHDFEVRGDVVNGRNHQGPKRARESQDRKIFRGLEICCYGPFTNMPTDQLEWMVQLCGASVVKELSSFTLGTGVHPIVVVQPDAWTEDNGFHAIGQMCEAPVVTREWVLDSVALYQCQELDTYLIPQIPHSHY
# UniProt Q92878: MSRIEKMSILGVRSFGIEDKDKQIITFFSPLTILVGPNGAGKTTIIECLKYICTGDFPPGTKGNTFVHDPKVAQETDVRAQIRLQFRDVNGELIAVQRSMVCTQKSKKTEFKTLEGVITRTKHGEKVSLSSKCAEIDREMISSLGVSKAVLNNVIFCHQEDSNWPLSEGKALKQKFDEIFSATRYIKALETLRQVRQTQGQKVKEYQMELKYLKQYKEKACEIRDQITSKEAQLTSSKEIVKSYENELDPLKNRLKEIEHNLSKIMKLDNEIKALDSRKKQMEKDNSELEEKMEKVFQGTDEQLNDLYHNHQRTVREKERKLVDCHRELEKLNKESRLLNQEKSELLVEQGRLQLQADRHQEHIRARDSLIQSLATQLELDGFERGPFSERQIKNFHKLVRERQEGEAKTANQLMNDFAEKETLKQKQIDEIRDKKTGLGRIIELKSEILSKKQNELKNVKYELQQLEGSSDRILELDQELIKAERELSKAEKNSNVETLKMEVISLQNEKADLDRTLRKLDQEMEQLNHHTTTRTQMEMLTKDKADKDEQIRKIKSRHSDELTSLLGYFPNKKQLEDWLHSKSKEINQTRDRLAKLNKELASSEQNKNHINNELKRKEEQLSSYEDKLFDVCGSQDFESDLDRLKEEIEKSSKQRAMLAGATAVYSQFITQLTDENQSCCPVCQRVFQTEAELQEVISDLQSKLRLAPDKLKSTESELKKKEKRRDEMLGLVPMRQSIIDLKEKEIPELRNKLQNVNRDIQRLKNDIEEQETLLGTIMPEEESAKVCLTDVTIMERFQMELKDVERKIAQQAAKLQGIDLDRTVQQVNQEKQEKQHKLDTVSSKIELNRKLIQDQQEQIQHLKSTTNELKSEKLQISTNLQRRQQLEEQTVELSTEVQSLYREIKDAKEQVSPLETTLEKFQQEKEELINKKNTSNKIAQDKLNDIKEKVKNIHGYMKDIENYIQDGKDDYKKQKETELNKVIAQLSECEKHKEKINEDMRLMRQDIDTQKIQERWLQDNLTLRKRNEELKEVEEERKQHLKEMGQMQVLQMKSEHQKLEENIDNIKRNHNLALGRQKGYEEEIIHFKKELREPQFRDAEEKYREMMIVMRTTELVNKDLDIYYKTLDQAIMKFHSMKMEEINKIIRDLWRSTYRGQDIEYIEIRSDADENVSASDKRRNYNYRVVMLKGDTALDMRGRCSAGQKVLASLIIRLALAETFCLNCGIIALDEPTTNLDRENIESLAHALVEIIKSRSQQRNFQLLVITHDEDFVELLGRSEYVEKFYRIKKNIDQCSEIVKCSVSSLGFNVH
# UniProt P54132: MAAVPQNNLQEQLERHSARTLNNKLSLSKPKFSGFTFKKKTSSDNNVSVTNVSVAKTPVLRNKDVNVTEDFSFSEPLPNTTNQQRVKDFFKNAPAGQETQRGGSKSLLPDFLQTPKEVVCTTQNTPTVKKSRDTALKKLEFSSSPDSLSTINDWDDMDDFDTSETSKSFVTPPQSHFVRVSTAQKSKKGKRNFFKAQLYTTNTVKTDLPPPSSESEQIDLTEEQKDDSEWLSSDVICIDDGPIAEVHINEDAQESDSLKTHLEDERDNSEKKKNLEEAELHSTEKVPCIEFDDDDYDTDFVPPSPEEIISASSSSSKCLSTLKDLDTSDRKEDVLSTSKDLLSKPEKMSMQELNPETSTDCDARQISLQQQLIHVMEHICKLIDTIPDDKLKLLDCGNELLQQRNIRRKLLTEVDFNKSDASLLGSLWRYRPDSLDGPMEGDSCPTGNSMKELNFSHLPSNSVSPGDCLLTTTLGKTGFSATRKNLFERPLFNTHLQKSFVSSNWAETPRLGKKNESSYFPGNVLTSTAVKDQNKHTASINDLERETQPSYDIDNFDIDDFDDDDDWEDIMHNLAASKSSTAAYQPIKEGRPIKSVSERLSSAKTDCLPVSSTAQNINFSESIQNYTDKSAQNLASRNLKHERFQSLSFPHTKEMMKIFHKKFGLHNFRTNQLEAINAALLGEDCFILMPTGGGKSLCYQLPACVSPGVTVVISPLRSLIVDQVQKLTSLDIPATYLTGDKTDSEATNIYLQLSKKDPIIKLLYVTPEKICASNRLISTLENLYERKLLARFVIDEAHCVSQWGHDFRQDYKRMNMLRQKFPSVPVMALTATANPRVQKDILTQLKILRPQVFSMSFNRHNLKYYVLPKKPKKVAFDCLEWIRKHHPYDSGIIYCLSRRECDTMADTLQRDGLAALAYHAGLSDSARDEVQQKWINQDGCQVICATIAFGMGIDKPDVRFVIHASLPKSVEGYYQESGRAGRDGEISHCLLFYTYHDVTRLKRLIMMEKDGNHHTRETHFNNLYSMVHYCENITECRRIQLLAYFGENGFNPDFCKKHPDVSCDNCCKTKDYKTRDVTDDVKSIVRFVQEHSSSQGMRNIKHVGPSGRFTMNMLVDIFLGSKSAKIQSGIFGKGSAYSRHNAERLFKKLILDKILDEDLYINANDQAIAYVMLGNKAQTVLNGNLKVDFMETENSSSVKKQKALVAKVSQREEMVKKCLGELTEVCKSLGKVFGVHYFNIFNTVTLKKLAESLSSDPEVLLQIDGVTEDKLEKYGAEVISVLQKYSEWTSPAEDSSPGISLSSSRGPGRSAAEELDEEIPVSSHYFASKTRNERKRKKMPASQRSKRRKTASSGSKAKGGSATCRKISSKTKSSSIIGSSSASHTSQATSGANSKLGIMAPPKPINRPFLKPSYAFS
# These are yes or no findings as the source states them, for the method shown. Binding seen in cells or lysates may run through a third protein. Some results given as binding are weak or reduced against the parent protein; the word gives no strength.
# Legend:
# Assay in all cases: co-IP; endogenous proteins from U2OS lysates (20 µg; unsynchronized or synchronized by double thymidine block to G1, S, G2) in NP40 lysis buffer (50 mM Tris.HCl pH 8.0, 150 mM NaCl, 2 mM EDTA, 1% NP40); anti-BRCA1, anti-BLM or anti-Rad50 on protein-A beads, 4°C; western blot
# [1] = target: BRCA1 tumor suppressor (human (endogenous in U2OS)) (UniProt P38398)
# [2] = target: RAD50 (human (endogenous in U2OS)) (UniProt Q92878)
# [3] = target: BLM helicase, mutated in Bloom's syndrome (human (endogenous in U2OS)) (UniProt P54132)
Substance,binding [1],binding [2],binding [3]
"BLM helicase, mutated in Bloom's syndrome (from UniProt P54132 1-1417)",binds,binds,
RAD50 (from UniProt Q92878 1-1312),,,binds
